Measurements taken from article PMC4534575, “The RNA Helicase DHX34 Activates NMD by Promoting a Transition from the Surveillance to the Decay-Inducing Complex” (Cell Reports, 2014).
Results are given in words; binding and its absence hold for the method and conditions named. For some assays here: Binding can be weak; no strength is given. For some assays here: Sequences can lack the tags named with a protein. For some assays here: In cells and extracts the contact can be indirect.

T1: T7-DHX34 (wild-type) (human, UniProt Q14147 1-1143)
T1 construct: Human DHX34, wild type; also called T7-tagged DHX34; shRNA-resistant (R) wild-type T7-DHX34; source: HEK293T, transiently transfected, in lysate; also purified on T7 agarose beads
T1 sequence (looked up): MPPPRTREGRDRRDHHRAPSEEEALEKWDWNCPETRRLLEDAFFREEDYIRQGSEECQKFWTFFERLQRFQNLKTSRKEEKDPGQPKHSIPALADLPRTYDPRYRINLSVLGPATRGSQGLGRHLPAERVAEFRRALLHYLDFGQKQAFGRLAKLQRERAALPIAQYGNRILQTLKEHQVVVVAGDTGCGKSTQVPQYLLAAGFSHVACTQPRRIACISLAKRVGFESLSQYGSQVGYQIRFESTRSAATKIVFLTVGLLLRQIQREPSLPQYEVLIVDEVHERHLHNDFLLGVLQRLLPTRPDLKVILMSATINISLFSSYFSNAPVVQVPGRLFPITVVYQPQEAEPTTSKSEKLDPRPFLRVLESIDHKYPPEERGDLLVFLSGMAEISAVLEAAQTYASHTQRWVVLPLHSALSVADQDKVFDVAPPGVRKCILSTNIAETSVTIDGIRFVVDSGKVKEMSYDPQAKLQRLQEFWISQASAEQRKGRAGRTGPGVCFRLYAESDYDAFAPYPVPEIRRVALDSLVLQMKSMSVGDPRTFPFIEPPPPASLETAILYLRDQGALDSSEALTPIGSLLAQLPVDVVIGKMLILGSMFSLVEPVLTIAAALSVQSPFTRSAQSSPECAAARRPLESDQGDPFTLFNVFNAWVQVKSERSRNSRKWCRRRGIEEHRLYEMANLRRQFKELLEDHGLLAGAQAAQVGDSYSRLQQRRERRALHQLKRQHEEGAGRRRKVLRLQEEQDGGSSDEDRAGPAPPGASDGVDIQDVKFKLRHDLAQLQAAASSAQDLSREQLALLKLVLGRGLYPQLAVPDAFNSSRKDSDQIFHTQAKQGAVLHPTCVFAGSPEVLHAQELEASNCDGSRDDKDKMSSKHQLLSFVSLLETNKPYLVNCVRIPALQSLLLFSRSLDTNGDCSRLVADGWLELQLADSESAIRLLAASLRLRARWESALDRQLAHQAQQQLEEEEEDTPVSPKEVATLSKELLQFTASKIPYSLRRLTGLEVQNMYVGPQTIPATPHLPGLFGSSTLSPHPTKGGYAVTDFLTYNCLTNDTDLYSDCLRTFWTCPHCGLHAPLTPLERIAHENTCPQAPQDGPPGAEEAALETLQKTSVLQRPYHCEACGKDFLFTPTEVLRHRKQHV

T2: FLAG-KAT8 (UniProt Q9H7Z6)
T2 sequence: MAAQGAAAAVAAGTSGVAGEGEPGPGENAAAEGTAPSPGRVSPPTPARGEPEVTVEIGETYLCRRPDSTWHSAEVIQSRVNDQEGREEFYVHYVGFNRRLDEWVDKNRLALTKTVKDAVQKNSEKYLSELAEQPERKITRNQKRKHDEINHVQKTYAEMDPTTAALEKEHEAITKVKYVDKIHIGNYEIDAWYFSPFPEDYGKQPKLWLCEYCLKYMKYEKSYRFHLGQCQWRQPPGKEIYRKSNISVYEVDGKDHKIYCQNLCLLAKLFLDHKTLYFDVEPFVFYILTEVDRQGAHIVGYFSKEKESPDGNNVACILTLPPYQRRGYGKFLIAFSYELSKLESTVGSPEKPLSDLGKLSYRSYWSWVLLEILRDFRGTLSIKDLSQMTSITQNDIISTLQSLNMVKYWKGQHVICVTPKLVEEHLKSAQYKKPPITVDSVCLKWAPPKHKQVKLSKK

T3: FLAG-DHX34 (human) (UniProt Q14147)
T3 sequence: T1 sequence (looked up)

B1: endogenous UPF1 (protein, UniProt Q92900 1-1129)
chain: MSVEAYGPSSQTLTFLDTEEAELLGADTQGSEFEFTDFTLPSQTQTPPGGPGGPGGGGAGGPGGAGAGAAAGQLDAQVGPEGILQNGAVDDSVAKTSQLLAELNFEEDEEDTYYTKDLPIHACSYCGIHDPACVVYCNTSKKWFCNGRGNTSGSHIVNHLVRAKCKEVTLHKDGPLGETVLECYNCGCRNVFLLGFIPAKADSVVVLLCRQPCASQSSLKDINWDSSQWQPLIQDRCFLSWLVKIPSEQEQLRARQITAQQINKLEELWKENPSATLEDLEKPGVDEEPQHVLLRYEDAYQYQNIFGPLVKLEADYDKKLKESQTQDNITVRWDLGLNKKRIAYFTLPKTDSGNEDLVIIWLRDMRLMQGDEICLRYKGDLAPLWKGIGHVIKVPDNYGDEIAIELRSSVGAPVEVTHNFQVDFVWKSTSFDRMQSALKTFAVDETSVSGYIYHKLLGHEVEDVIIKCQLPKRFTAQGLPDLNHSQVYAVKTVLQRPLSLIQGPPGTGKTVTSATIVYHLARQGNGPVLVCAPSNIAVDQLTEKIHQTGLKVVRLCAKSREAIDSPVSFLALHNQIRNMDSMPELQKLQQLKDETGELSSADEKRYRALKRTAERELLMNADVICCTCVGAGDPRLAKMQFRSILIDESTQATEPECMVPVVLGAKQLILVGDHCQLGPVVMCKKAAKAGLSQSLFERLVVLGIRPIRLQVQYRMHPALSAFPSNIFYEGSLQNGVTAADRVKKGFDFQWPQPDKPMFFYVTQGQEEIASSGTSYLNRTEAANVEKITTKLLKAGAKPDQIGIITPYEGQRSYLVQYMQFSGSLHTKLYQEVEIASVDAFQGREKDFIILSCVRANEHQGIGFLNDPRRLNVALTRARYGVIIVGNPKALSKQPLWNHLLNYYKEQKVLVEGPLNNLRESLMQFSKPRKLVNTINPGARFMTTAMYDAREAIIPGSVYDRSSQGRPSSMYFQTHDQIGMISAGPSHVAAMNIPIPFNLVMPPMPPPGYFGQANGPAAGRGTPKGKTGRGGRQKNRFGLPGPSQTNLPNSQASQDVASQPFSQGALTQGYISMSQPSQMSQPGLSQPELSQDSYLGDEFKSQIDVALSQDSTYQGERAYQHGGVTGLSQY

Columns and labels:
T7-DHX34 (wild-type) = target: T1, T7-DHX34 (wild-type); assay: pull-down; purified T7-DHX34 (wild-type or deletion constructs) on T7 agarose beads incubated with recombinant UPF1, UPF2, UPF3b or purified full-length FLAG-UPF1 in buffer D for 2 hr at 4°C; both purified
FLAG-KAT8 = target: T2, FLAG-KAT8; assay: pull-down; FLAG-DHX34 (or FLAG-KAT8) on anti-FLAG beads, washed stringently, incubated with recombinant UPF1 in buffer D for 2 hr at 4°C; mixed in a 1:1 ratio; also with RNase A 80 μg/ml; both purified
FLAG-DHX34 (human) = target: T3, FLAG-DHX34 (human); assay: as above
T7-DHX34ΔHrpA (human) = assay: co-IP; IP of transiently transfected T7-DHX34 (wild-type or mutants) from HEK293T lysate, in the presence of RNase A (Figure 3B); endogenous partners by western blot
T7-DHX34 ΔDExH/D (human) = assay: as above

| Molecule | binding (T7-DHX34 (wild-type)) | binding (FLAG-KAT8) | binding (FLAG-DHX34 (human)) | binding (T7-DHX34ΔHrpA (human)) | binding (T7-DHX34 ΔDExH/D (human)) |
| --- | --- | --- | --- | --- | --- |
| recombinant UPF1 (human) | binds | no binding | binds |  |  |
| B1 |  |  |  | no binding | binds |
